# Data taken from patent publication US11110070B2 (priority 2015, dated 2021).
# “Also recorded” adds a separate entry of the source.
# System: 129S6/SvEvTac mice
# Assay: 3-shock CFC, extinction and reinstatement paradigm
# Type: in vivo
# Protocol: A single injection of saline (0.9% NaCl) far ketamine (30 mg kg^−1) (Ketaset III, Ketamine HCl injection, Fort Dodge Animal Health, Forth Dodge, Iowa) was administered once during the course of each experiment.
# A 3-shock CFC paradigm was administered as previously described (Drew et al., 2010; Denny et al., 2014). Mice were placed in the conditioning chamber and received 3 shocks 180, 240, and 300 s later (2 s, 0.75 mA) and were removed 15 s following the last shock. All sessions were scored for freezing using FreezeView2http://actimetrics.com/downloads/freezeframe/).
# Extinction began 4 days after the initial 3-shock CFC procedure, or 4 days after the reinstatement procedure. Each group of mice was subjected to 2 extinction trials per day. Each extinction trial lasted 30 min, with an intertrial interval of at least 2 h. For each extinction trial, mice were placed in the same box used for CFC without receiving foot shocks. All trials were scored for freezing. The freezing presented throughout the text represents averaged freezing behavior for the first 3 min of each extinction trial.
# Reinstatement took place in the same Coulbourn fear conditioning box, but with altered cues. A 1-shock CFC paradigm was administered as previously described (Drew et al., 2010; Denny et al., 2012; Denny et al., 2014), with the exception of two experiments in which the mice were administered 3 shocks.
structure (smiles),measurement,setting,value
"CNC1(c2ccccc2Cl)CCCCC1=O (racemic) [ketamine, (RS)-2-(2-chlorophenyl)-2-(methylamino)cyclohexanone]",distance traveled during the 3 shock presentations,ketamine 1 week before CFC,traveled comparably
same,distance traveled during the reinstatement shock presentation,ketamine 1 week prior to 1-shock reinstatement,traveled comparably during the reinstatement shock presentation
same,distance traveled during the 3 reinstatement shock presentations,ketamine 1 week prior to 3-shock reinstatement,traveled comparably during each of the 3 reinstatement shock presentations
same,immobility prior to the shock presentation,ketamine 1 h before CFC,increased immobility prior to the shock presentation; also recorded: increased immobility before the shock presentation
same,distance traveled during the shock presentations,"ketamine 1 h before CFC, vs saline",traveled less; also recorded: travel less during the shock presentation
same,immobility prior to the shock presentation / freezing during CFC training,ketamine 24 h before CFC,did not alter; also recorded: equal levels of freezing behavior during CFC training
